Data: the supplement of paper PMC8291772
± gives the standard error. The list shows a part of the results. Single values are uncertain here, since repeats match poorly.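 Every DNA sequence of one to five nucleotides was in the library. Extension ability overall was judged using a cutoff equal to the blocked version's mean plus three standard deviations; the probe detects only chains with at least seven added dT.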

Protein sequences, listed by entry. Tags and fused reporters are not part of them. Lines headed by an entry give the natural chain unless they say otherwise; changes in a name come on top.
UniProt P06526: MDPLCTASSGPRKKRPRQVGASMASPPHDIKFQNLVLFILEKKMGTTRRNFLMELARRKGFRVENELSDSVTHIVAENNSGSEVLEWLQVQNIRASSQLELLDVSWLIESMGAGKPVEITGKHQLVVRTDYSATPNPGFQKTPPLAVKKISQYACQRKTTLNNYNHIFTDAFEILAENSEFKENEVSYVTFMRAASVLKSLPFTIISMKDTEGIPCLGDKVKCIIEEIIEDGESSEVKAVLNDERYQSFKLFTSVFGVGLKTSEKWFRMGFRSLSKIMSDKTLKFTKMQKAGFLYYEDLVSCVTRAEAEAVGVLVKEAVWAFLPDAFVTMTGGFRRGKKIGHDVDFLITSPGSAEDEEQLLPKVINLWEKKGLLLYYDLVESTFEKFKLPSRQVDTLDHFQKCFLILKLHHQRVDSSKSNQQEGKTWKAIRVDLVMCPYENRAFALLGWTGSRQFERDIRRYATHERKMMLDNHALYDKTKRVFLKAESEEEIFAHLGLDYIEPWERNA

Each sequence was assayed against terminal deoxynucleotidyl transferase (calf thymus) (UniProt P06526) (assay: TdT poly-dT extension signal (Cy3 hybridisation fluorescence, uncapped minus capped) (fluorescence a.u.); higher = more efficient initiation of TdT extension). Conditions: initiator chemistry: D-DNA, free 3'-OH (5'-tethered via HEG linker).
Protocol: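 All mono- to pentamer initiator sequences were made by photolithographic in situ synthesis (reverse 5'->3' direction) on glass on a single hexaethylene glycol linker. Each was made in uncapped and DMTr-dT-capped versions, about 11 replicate features each. Arrays were extended with calf thymus TdT (0.2 U/uL) and 100 uM dTTP in TdT buffer with 0.25 mM CoCl2 for 120 min at 37 C, then hybridised with an rA18-Cy3 probe at 4 C and scanned at 532 nm. The value is the mean uncapped signal minus the mean capped signal of the same sequence.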

Row | Sequence | TdT poly-dT extension signal
1 | TGTAA | 4160 ± 370
2 | TCCC | 2840 ± 270
3 | CCATA | 4340 ± 220
4 | CCCAA | 3910 ± 580
5 | CTACA | 2330 ± 380
6 | CGCA | 3430 ± 300
7 | CTTGC | 3550 ± 340
8 | AATCA | 3600 ± 340
9 | TTCCC | 2390 ± 330
10 | TAGTC | 3390 ± 410
11 | CCGTG | 3590 ± 370
12 | AGCCT | 3000 ± 370
13 | TCCGG | 5040 ± 810
14 | CCTCG | 4110 ± 540
15 | TGCG | 3520 ± 440
16 | TAGTA | 2940 ± 390
17 | GGCTA | 3760 ± 500
18 | ATCGA | 3460 ± 440
19 | GTCAG | 4400 ± 740
20 | ATACA | 4140 ± 330
21 | ACCAA | 4100 ± 330
22 | AACGT | 3780 ± 380
23 | ACTCA | 3770 ± 360
24 | ATCAC | 3350 ± 320

Row | Sequence | TdT poly-dT extension signal
25 | GCCCC | 3180 ± 240
26 | TAACT | 3000 ± 390
27 | CCGC | 4000 ± 290
28 | TCCAA | 3460 ± 450
29 | GACCT | 3490 ± 290
30 | AAGCG | 3720 ± 340
31 | TTTGG | 3580 ± 320
32 | CCAGA | 3770 ± 410
33 | CACGA | 4030 ± 560
34 | AGAG | 3660 ± 370
35 | ATGAT | 3710 ± 330
36 | AGGAT | 2910 ± 580
37 | TTTAA | 4100 ± 560
38 | GACGC | 3440 ± 440
39 | GAGTA | 3560 ± 600
40 | CACCT | 3470 ± 230
41 | ATACT | 3470 ± 200
42 | TGGTC | 3510 ± 380
43 | GACAA | 4470 ± 460
44 | CAAGT | 4020 ± 350
45 | CTCTC | 3540 ± 300
46 | AAGA | 3630 ± 450
47 | GATGC | 2610 ± 340
48 | GCTCT | 3480 ± 300

Row | Sequence | TdT poly-dT extension signal
49 | ACCG | 3850 ± 310
50 | ACAC | 2900 ± 290
51 | CCAT | 3880 ± 700
52 | CAGCA | 4140 ± 260
53 | CAAAA | 4990 ± 630
54 | TTGAA | 5100 ± 620
55 | TCGGT | 4090 ± 410
56 | CAAT | 4590 ± 370
57 | GGTTT | 3860 ± 420
58 | CGTCT | 3720 ± 240
59 | CTGCC | 3030 ± 320
60 | GACA | 3700 ± 450
61 | AATTC | 3070 ± 320
62 | ACTTT | 4990 ± 660
63 | CCTGC | 3670 ± 400
64 | GGAGT | 3140 ± 420
65 | CTCTT | 3710 ± 230
66 | CCAAG | 4010 ± 380
67 | AAGTT | 3550 ± 360
68 | CTGGT | 3000 ± 490
69 | GCGTT | 3810 ± 370
70 | GACAT | 4020 ± 430
71 | GTATC | 2420 ± 400
72 | AAGGG | 4390 ± 370

Looked up one by one from the entries so far:
Row | Sequence | TdT poly-dT extension signal
14 | CCTCG | 4110 ± 540
53 | CAAAA | 4990 ± 630
37 | TTTAA | 4100 ± 560
44 | CAAGT | 4020 ± 350
31 | TTTGG | 3580 ± 320
1 | TGTAA | 4160 ± 370
41 | ATACT | 3470 ± 200

Following part.

Row | Sequence | TdT poly-dT extension signal
73 | CTCGC | 2880 ± 390
74 | TATG | 3080 ± 440
75 | AGTTC | 2580 ± 360
76 | CGTAA | 4290 ± 300
77 | CCTAG | 3240 ± 360
78 | TCTGT | 3170 ± 400
79 | GCTTT | 3790 ± 470
80 | CGATA | 3880 ± 350
81 | AGAGG | 4420 ± 430
82 | CAGAT | 2830 ± 420
83 | GATC | 2210 ± 330
84 | AGTCA | 3040 ± 560
85 | TTAAC | 2780 ± 280
86 | AATCT | 3760 ± 120
87 | CAGAA | 3740 ± 400
88 | CTTCG | 2980 ± 280
89 | TCTTG | 3360 ± 450
90 | TCGAA | 4240 ± 400
91 | CGACT | 3500 ± 330
92 | AGGCG | 4410 ± 520
93 | GTTCT | 3710 ± 180
94 | ACCCT | 2970 ± 350
95 | TCGCA | 3940 ± 450
96 | GGTT | 4210 ± 270

Shown as comma-separated lines: part of the list above
Row,Sequence,TdT poly-dT extension signal
84,AGTCA,3040 ± 560
85,TTAAC,2780 ± 280
86,AATCT,3760 ± 120
87,CAGAA,3740 ± 400
88,CTTCG,2980 ± 280

Next entries follow:

Row | Sequence | TdT poly-dT extension signal
97 | ATGA | 3570 ± 410
98 | CGCT | 3390 ± 390
99 | GATGA | 3690 ± 400
100 | TTCTA | 3950 ± 390
101 | AGAT | 3250 ± 260
102 | GCGCT | 3330 ± 340
103 | GCAA | 4550 ± 380
104 | TCAC | 2800 ± 310
105 | CGCTG | 3770 ± 520
106 | GAACA | 4160 ± 350
107 | GAATC | 2930 ± 340
108 | GATCT | 3910 ± 350
109 | AGCA | 3380 ± 410
110 | TGAG | 3790 ± 270
111 | TACGT | 3560 ± 290
112 | CCAGT | 3940 ± 570
113 | AGCGG | 5020 ± 300
114 | GTAC | 3160 ± 510
115 | TGCGA | 2810 ± 460
116 | CCATG | 3970 ± 420
117 | ATCGC | 4160 ± 380
118 | GCCAA | 4620 ± 360
119 | CTGAT | 3810 ± 340
120 | AGCGC | 2980 ± 360

Row | Sequence | TdT poly-dT extension signal
121 | CTAAC | 3340 ± 330
122 | GTCGT | 3670 ± 310
123 | GGTCA | 3960 ± 660
124 | CAAGA | 2860 ± 470
125 | ACGTT | 3510 ± 370
126 | GCTT | 3220 ± 370
127 | CTCG | 3410 ± 380
128 | AAGAA | 3750 ± 450
129 | GTTAC | 2870 ± 360
130 | GAGTT | 3340 ± 360
131 | CCTAT | 4050 ± 330
132 | CCTCC | 3160 ± 270
133 | ACGCA | 3870 ± 660
134 | AGGTA | 4300 ± 370
135 | ACTT | 2520 ± 350
136 | AAACA | 2990 ± 580
137 | TGAGG | 5500 ± 800
138 | TGGCG | 3920 ± 540
139 | TAGAG | 3800 ± 390
140 | ATCA | 3350 ± 340
141 | CTCCC | 3310 ± 160
142 | GTAGT | 3460 ± 390
143 | AGTTA | 4320 ± 440
144 | TTGTA | 5020 ± 600

Row | Sequence | TdT poly-dT extension signal
145 | CCGCG | 4200 ± 710
146 | GATAA | 4730 ± 310
147 | TGCAA | 4370 ± 420
148 | CCTAC | 3440 ± 260
149 | ACTCT | 3860 ± 280
150 | GTGC | 2770 ± 350
151 | TAGCA | 3270 ± 470
152 | CAACC | 2780 ± 330
153 | CTAAG | 3800 ± 870
154 | GGTAA | 3940 ± 370
155 | TAGG | 3640 ± 500
156 | ACTCG | 3670 ± 420
157 | GTTAG | 3920 ± 670
158 | CACG | 3380 ± 340
159 | TACTT | 3870 ± 260
160 | GCCCG | 2610 ± 380
161 | ATAG | 3650 ± 330
162 | GAGCA | 3670 ± 440
163 | AGCC | 3710 ± 210
164 | TATTA | 4370 ± 730
165 | GTGTT | 4400 ± 340
166 | ACAAG | 4810 ± 490
167 | CCGTC | 4100 ± 460
168 | ACGC | 3120 ± 470

Row | Sequence | TdT poly-dT extension signal
169 | GCTGA | 3830 ± 790
170 | GTTT | 3500 ± 280
171 | ATTGG | 4380 ± 340
172 | TGGGT | 4800 ± 400
173 | AGTGA | 4170 ± 240
174 | GAGCC | 2980 ± 340
175 | ACCGG | 3510 ± 440
176 | TTGCT | 3390 ± 350
177 | ACGTA | 3340 ± 430
178 | ATTT | 3590 ± 530
179 | CTGAG | 5080 ± 290
180 | CTGAC | 3250 ± 400
181 | TCTG | 3770 ± 330
182 | AAGAG | 4110 ± 390
183 | TCAGA | 4480 ± 330
184 | GGGCA | 4610 ± 440
185 | GTAGC | 3330 ± 460
186 | CCTTT | 4820 ± 380
187 | GAGAG | 3670 ± 390
188 | CATGT | 4690 ± 850
189 | ATTCT | 3770 ± 390
190 | TAACG | 2920 ± 430
191 | TGACA | 3540 ± 460
192 | TATGC | 3280 ± 350

From entry 176 to 179, as listed above:
Row | Sequence | TdT poly-dT extension signal
176 | TTGCT | 3390 ± 350
177 | ACGTA | 3340 ± 430
178 | ATTT | 3590 ± 530
179 | CTGAG | 5080 ± 290

(cont.)

Row | Sequence | TdT poly-dT extension signal
193 | ACTTG | 2950 ± 500
194 | AGAAG | 4270 ± 520
195 | ACCTC | 2780 ± 250
196 | TGAAA | 4520 ± 520
197 | ATGG | 3210 ± 380
198 | CTCAT | 3450 ± 340
199 | CAATT | 3510 ± 470
200 | TACGC | 3470 ± 350
201 | CACTA | 2760 ± 420
202 | GCCGA | 3680 ± 440
203 | TATAA | 4010 ± 540
204 | CTAGA | 4110 ± 360
205 | GTGTG | 3550 ± 380
206 | CTTG | 3170 ± 450
207 | GAAGA | 3200 ± 430
208 | CCCAT | 4030 ± 460
209 | CCGG | 3690 ± 680
210 | GTCT | 3510 ± 240
211 | TCATT | 4730 ± 240
212 | CTAG | 3360 ± 430
213 | GCTCA | 3150 ± 350
214 | TAGT | 2430 ± 300
215 | TCCCC | 3060 ± 230
